These are yes or no findings as the source states them, for the method shown. In cells and extracts the contact can be indirect. Binding can be weak; no strength is given. Tags and fused reporters may be left off the sequences shown.
Tests used:
[1] = target: T1, His-tagged DacA (pET28a) (E. coli) (UniProt P0AEB2); assay: pull-down; supernatant of ER2566 cells with nontagged PBP1b mixed with supernatant of ER2566 cells with His-tagged DD-CPase; Talon metal affinity resin; binding buffer at pH 9.0, 4°C; eluate on gel, Coomassie stain
T1 sequence: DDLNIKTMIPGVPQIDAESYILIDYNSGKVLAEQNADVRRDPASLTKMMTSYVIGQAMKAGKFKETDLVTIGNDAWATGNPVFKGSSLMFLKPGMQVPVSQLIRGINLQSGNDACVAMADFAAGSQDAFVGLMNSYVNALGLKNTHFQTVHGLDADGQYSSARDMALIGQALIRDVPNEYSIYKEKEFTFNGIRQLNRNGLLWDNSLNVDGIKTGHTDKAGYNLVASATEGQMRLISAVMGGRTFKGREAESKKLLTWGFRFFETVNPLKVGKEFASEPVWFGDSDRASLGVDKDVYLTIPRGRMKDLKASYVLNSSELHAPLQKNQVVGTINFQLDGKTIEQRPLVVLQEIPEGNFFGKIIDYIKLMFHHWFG

By UniProt entry, the sequences of proteins in these tests, tags left out. Where a name states a change or a piece, a line headed by the entry shows the natural chain unless it says otherwise.
UniProt P02919: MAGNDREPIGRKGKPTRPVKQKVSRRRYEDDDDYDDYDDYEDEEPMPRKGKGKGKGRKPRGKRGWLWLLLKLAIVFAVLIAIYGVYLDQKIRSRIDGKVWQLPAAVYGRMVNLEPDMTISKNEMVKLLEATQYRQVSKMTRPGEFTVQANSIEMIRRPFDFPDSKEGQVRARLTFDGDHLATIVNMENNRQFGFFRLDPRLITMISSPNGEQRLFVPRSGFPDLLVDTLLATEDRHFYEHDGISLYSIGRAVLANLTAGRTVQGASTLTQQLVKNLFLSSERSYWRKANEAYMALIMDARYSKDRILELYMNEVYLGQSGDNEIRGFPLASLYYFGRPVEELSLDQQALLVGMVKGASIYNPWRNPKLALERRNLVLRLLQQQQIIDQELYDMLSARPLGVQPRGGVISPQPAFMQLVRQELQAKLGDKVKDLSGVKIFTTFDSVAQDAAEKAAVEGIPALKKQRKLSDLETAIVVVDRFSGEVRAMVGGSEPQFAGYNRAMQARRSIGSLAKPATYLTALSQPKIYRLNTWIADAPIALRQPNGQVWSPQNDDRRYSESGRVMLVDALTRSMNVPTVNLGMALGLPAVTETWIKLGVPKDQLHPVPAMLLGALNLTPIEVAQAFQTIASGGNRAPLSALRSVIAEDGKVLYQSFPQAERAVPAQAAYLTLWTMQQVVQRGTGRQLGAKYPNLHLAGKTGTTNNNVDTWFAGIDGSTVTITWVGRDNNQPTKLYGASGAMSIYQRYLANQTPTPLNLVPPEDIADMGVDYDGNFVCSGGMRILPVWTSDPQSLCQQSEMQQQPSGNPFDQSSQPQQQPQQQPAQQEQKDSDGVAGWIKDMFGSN

[2] = target: T2, His-tagged DacC (pET28a) (E. coli) (UniProt P08506); assay: as above
T2 sequence: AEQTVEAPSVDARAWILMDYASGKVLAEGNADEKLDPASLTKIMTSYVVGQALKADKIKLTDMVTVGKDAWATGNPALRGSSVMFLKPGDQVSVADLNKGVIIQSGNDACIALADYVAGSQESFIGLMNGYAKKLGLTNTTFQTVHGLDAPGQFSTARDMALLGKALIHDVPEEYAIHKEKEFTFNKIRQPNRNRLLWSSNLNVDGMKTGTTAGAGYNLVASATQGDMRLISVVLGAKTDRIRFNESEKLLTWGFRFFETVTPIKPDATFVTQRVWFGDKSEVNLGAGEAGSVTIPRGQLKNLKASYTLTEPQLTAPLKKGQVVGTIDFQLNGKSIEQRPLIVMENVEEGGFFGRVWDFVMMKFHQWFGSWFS

[3] = target: T1, His-tagged DacA (pET28a) (E. coli); assay: pull-down; supernatant of ER2566 cells with nontagged PBP1b mixed with supernatant of ER2566 cells with His-tagged DD-CPase; Talon metal affinity resin; binding buffer at pH 8.0, 4°C; eluate on gel, Coomassie stain
[4] = target: T2, His-tagged DacC (pET28a) (E. coli); assay: as above

binding [1]: binds
binding [2]: binds
binding [3]: binds
binding [4]: binds
Substance: nontagged PBP1b (pET24a) (from UniProt P02919) (enzyme)

Reference: paper PMC10269652
